Reference: publication PMC12084419
No constants are given. Whether binding was seen depends on the method and setting. Binding seen in cells or lysates may run through a third protein. These calls come from enrichment with a bait or labelling near it, and not all partners need be listed. Tags and fused reporters may be left off the sequences shown.

T1: KIFC1, bait of the IP-MS screen (UniProt Q9BW19)
T1 sequence: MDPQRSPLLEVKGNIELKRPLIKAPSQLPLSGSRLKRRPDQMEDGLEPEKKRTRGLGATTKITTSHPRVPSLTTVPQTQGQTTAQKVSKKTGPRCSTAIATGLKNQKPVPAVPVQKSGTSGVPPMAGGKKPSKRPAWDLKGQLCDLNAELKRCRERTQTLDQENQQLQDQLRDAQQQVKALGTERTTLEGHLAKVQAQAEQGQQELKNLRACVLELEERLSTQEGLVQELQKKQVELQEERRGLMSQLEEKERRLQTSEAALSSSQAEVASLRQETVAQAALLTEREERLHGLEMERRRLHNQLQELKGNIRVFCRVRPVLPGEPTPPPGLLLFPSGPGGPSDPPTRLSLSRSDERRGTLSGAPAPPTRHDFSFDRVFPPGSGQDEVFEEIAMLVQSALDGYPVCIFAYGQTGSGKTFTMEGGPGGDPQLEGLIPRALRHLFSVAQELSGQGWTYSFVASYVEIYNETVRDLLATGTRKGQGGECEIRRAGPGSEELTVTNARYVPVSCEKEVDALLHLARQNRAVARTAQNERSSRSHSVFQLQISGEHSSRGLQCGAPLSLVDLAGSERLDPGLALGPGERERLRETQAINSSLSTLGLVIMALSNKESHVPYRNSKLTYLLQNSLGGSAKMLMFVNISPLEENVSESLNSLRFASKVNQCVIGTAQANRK

B1: SMG8 (protein, UniProt Q8ND04 1-991)
chain: MAGPVSLRDLLMGASAWMGSESPGGSPTEGGGSAAGGPEPPWREDEICVVGIFGKTALRLNSEKFSLVNTVCDRQVFPLFRHQDPGDPGPGIRTEAGAVGEAGGAEDPGAAAGGSVRGSGAVAEGNRTEAGSQDYSLLQAYYSQESKVLYLLLTSICDNSQLLRACRALQSGEAGGGLSLPHAEAHEFWKHQEKLQCLSLLYLFSVCHILLLVHPTCSFDITYDRVFRALDGLRQKVLPLLKTAIKDCPVGKDWKLNCRPCPPRLLFLFQLNGALKVEPPRNQDPAHPDKPKKHSPKRRLQHALEDQIYRIFRKSRVLTNQSINCLFTVPANQAFVYIVPGSQEEDPVGMLLDQLRSHCTVKDPESLLVPAPLSGPRRYQVMRQHSRQQLSFHIDSSSSSSSGQLVDFTLREFLWQHVELVLSKKGFDDSVGRNPQPSHFELPTYQKWISAASKLYEVAIDGKEEDLGSPTGELTSKILSSIKVLEGFLDIDTKFSENRCQKALPMAHSAYQSNLPHNYTMTVHKNQLAQALRVYSQHARGPAFHKYAMQLHEDCYKFWSNGHQLCEERSLTDQHCVHKFHSLPKSGEKPEADRNPPVLYHNSRARSTGACNCGRKQAPRDDPFDIKAANYDFYQLLEEKCCGKLDHINFPVFEPSTPDPAPAKNESSPAPPDSDADKLKEKEPQTQGESTSLSLALSLGQSTDSLGTYPADPQAGGDNPEVHGQVEVKTEKRPNFVDRQASTVEYLPGMLHSNCPKGLLPKFSSWSLVKLGPAKSYNFHTGLDQQGFIPGTNYLMPWDIVIRTRAEDEGDLDTNSWPAPNKAIPGKRSAVVMGRGRRRDDIARAFVGFEYEDSRGRRFMCSGPDKVMKVMGSGPKESALKALNSDMPLYILSSSQGRGLKPHYAQLMRLFVVVPDAPLQIILMPQVQPGPPPCPVFYPEKQEITLPPDGLWVLRFPYAYVTERGPCFPPKENVQLMSYKVLRGVLKAVTQ
B2: MYCBP (hit of the IP-MS screen) (protein, UniProt Q99417 1-103)
chain: MAHYKAADSKREQFRRYLEKSGVLDTLTKVLVALYEEPEKPNSALDFLKHHLGAATPENPEIELLRLELAEMKEKYEAIVEENKKLKAKLAQYEPPQEEKRAE

biological target: T1, KIFC1, bait of the IP-MS screen; assay: affinity purification with mass spectrometry; IP-MS with KIFC1 as bait; Orbitrap Exploris 480; search against the reviewed SwissProt human proteome; cells not given

binding	Molecule
binds	CDC42EP
binds	B1
binds	B2
